Assay results taken from US20170049847A1.
These are yes or no findings as the source states them, for the method shown. A result given as binding can be weak or reduced; the word gives no strength.

Molecular target: TNFR
Assay: ELISA, peptide coated on plate, soluble receptor added, anti-human IgG-HRP, OD 450 nm

Row | Binder | binding
1 | ACRSAIGRPC [peptide of SEQ ID NO: 1] | binds
2 | ACFTRTSHAC [peptide of SEQ ID NO: 2] | binds
3 | ACDGRTQALC [peptide of SEQ ID NO: 3] | binds
